Laboratory results: patent publication US20250283871A1, “COMPOSITIONS AND METHODS FOR MODULATING THE INTERACTION BETWEEN SS18-SSX FUSION ONCOPROTEIN AND NUCLEOSOMES” (Dana-Farber Cancer Institute, Inc., priority 2020, published 2025)

Tested on: BAF complex subunits and histone proteins
Assay: Mass spectrometry proteomics of purified HA-SS18 WT and HA-SS18-SSX1 complexes (Tables 5A-5E)
Parameters: species or system human
Conditions: for Total / Unique: HA-SS18SSX1_CHR_peptides; for Total: total peptides of the identified protein; for Unique: unique peptides of the identified protein
[1] = HA-SS18WT_CHR_peptides: protein identified in HA-SS18 WT BAF complex purification from nuclease-treated solubilized chromatin (CHR), HEK-293T
[2] = HA-SS18SSX1_CHR_peptides: protein identified in the HA-SS18-SSX1 purification from solubilized chromatin (CHR), HEK-293T
[3] = HA-SS18SSX1 purification, NE (soluble nuclear extract) fraction, HEK-293T, peptides per identified protein
[4] = HA-SS18WT_CHR_peptides: HA-SS18 WT purification from nuclease-treated solubilized chromatin (CHR), HEK-293T, label = protein identified
[5] = HA-SS18WT_NE_peptides: HA-SS18 WT complexes purified from nuclear extract (NE), HEK-293T, label = protein identified (Gene Symbol)
[6] = HA-SS18SSX1_NE_peptides: protein co-purified with HA-SS18-SSX1 BAF complexes from soluble nuclear extract (NE), HEK-293T cells

Molecule | Total | Unique | Total (total peptides) [1] | Unique (unique peptides) [1] | other results
HNRNPA1L2 (protein) MSKSASPKEPEQLRKLFIGGLSFETTDESLRSHFEQWGTLTDCVVMRDPNTKRSRGFGFVTYATVEEVDAAMNTTPHKVDGRVVEPKRAVSREDSQRPGAHLTVKKIFVGGIKEDTEEHHLRDYFEQYGKIEVIEIMTDRGSGKKRGFAFVTFDDHDSVDKIVIQKYHTVKGHNCEVRKALPKQEMASASSSQRGRRGSGNFGGGRGDGFGGNDNFGRGGNFSGRGGFGGSCGGGGYGGSGDGYNGFGNDGSNFGGGGSYNDFGNYNNQSSNFGPMKGGNFGGRSSGPYGGGGQYFAKPQNQGGYGVSSSSSSYGSGRRF | 2 | 2 | 1 | 1 | –
LMNB1 (protein, UniProt P20700 2-583, looked up) Lamin-B1: ATATPVPPRMGSRAGGPTTPLSPTRLSRLQEKEELRELNDRLAVYIDKVRSLETENSALQLQVTEREEVRGRELTGLKALYETELADARRALDDTARERAKLQIELGKCKAEHDQLLLNYAKKESDLNGAQIKLREYEAALNSKDAALATALGDKKSLEGDLEDLKDQIAQLEASLAAAKKQLADETLLKVDLENRCQSLTEDLEFRKSMYEEEINETRRKHETRLVEVDSGRQIEYEYKLAQALHEMREQHDAQVRLYKEELEQTYHAKLENARLSSEMNTSTVNSAREELMESRMRIESLSSQLSNLQKESRACLERIQELEDLLAKEKDNSRRMLTDKEREMAEIRDQMQQQLNDYEQLLDVKLALDMEISAYRKLLEGEEERLKLSPSPSSRVTVSRASSSRSVRTTRGKRKRVDVEESEASSSVSISHSASATGNVCIEEIDVDGKFIRLKNTSEQDQPMGGWEMIRKIGDTSVSYKYTSRYVLKAGQTVTIWAANAGVTASPPTDLIWKNQNSWGTGEDVKVILKNSQGEEVAQRSTVFKTTIPEEEEEEEEAAGVVVEEELFHQQGTPRASNRSC | – | – | – | – | Total (total peptides) [2]: 33; Unique (unique peptides) [2]: 21; Total (total peptides) [3]: 17; Unique (unique peptides) [3]: 16; Total (peptides) [4]: 13; Unique (peptides) [4]: 13; Total (peptides) [5]: 17; Unique (peptides) [5]: 12
TBP (protein, UniProt P20226 1-339, looked up) TATA-box-binding protein: MDQNNSLPPYAQGLASPQGAMTPGIPIFSPMMPYGTGLTPQPIQNTNSLSILEEQQRQQQQQQQQQQQQQQQQQQQQQQQQQQQQQQQQQQQQQQAVAAAAVQQSTSQQATQGTSGQAPQLFHSQTLTTAPLPGTTPLYPSPMTPMTPITPATPASESSGIVPQLQNIVSTVNLGCKLDLKTIALRARNAEYNPKRFAAVIMRIREPRTTALIFSSGKMVCTGAKSEEQSRLAARKYARVVQKLGFPAKFLDFKIQNMVGSCDVKFPIRLEGLVLTHQQFSSYEPELFPGLIYRMIKPRIVLLIFVSGKVVLTGAKVRAEIYEAFENIYPILKGFRKTT | 2 | 2 | 1 | 1 | –
SLC25A5 (protein, UniProt P05141 1-298, looked up) ADP/ATP translocase 2: MTDAAVSFAKDFLAGGVAAAISKTAVAPIERVKLLLQVQHASKQITADKQYKGIIDCVVRIPKEQGVLSFWRGNLANVIRYFPTQALNFAFKDKYKQIFLGGVDKRTQFWLYFAGNLASGGAAGATSLCFVYPLDFARTRLAADVGKAGAEREFRGLGDCLVKIYKSDGIKGLYQGFNVSVQGIIIYRAAYFGIYDTAKGMLPDPKNTHIVISWMIAQTVTAVAGLTSYPFDTVRRRMMMQSGRKGTDIMYTGTLDCWRKIARDEGGKAFFKGAWSNVLRGMGGAFVLVLYDEIKKYT | 2 | 2 | 2 | 2 | Total (total peptides) [3]: 12; Unique (unique peptides) [3]: 2; Total (peptides) [5]: 8; Unique (peptides) [5]: 3
ZNF687 (protein, UniProt Q8N1G0 1-1237, looked up) Zinc finger protein 687: MGDMKTPDFDDLLAAFDIPDIDANEAIHSGPEENEGPGGPGKPEPGVGSESEDTAAASAGDGPGVPAQASDHGLPPPDISVVSVIVKNTVCPEQSEALAGGSAGDGAQAAGVTKEGPVGPHRMQNGFGSPEPSLPGTPHSPAPPSGGTWKEKGMEGKTPLDLFAHFGPEPGDHSDPLPPSAPSPTREGALTPPPFPSSFELAQENGPGMQPPVSSPPLGALKQESCSPHHPQVLAQQGSGSSPKATDIPASASPPPVAGVPFFKQSPGHQSPLASPKVPVCQPLKEEDDDEGPVDKSSPGSPQSPSSGAEAADEDSNDSPASSSSRPLKVRIKTIKTSCGNITRTVTQVPSDPDPPAPLAEGAFLAEASLLKLSPATPTSEGPKVVSVQLGDGTRLKGTVLPVATIQNASTAMLMAASVARKAVVLPGGTATSPKMIAKNVLGLVPQALPKADGRAGLGTGGQKVNGASVVMVQPSKTATGPSTGGGTVISRTQSSLVEAFNKILNSKNLLPAYRPNLSPPAEAGLALPPTGYRCLECGDAFSLEKSLARHYDRRSMRIEVTCNHCARRLVFFNKCSLLLHAREHKDKGLVMQCSHLVMRPVALDQMVGQPDITPLLPVAVPPVSGPLALPALGKGEGAITSSAITTVAAEAPVLPLSTEPPAAPATSAYTCFRCLECKEQCRDKAGMAAHFQQLGPPAPGATSNVCPTCPMMLPNRCSFSAHQRMHKNRPPHVCPECGGNFLQANFQTHLREACLHVSRRVGYRCPSCSVVFGGVNSIKSHIQTSHCEVFHKCPICPMAFKSGPSAHAHLYSQHPSFQTQQAKLIYKCAMCDTVFTHKPLLSSHFDQHLLPQRVSVFKCPSCPLLFAQKRTMLEHLKNTHQSGRLEETAGKGAGGALLTPKTEPEELAVSQGGAAPATEESSSSSEEEEVPSSPEPPRPAKRPRRELGSKGLKGGGGGPGGWTCGLCHSWFPERDEYVAHMKKEHGKSVKKFPCRLCERSFCSAPSLRRHVRVNHEGIKRVYPCRYCTEGKRTFSSRLILEKHVQVRHGLQLGAQSPGRGTTLARGSSARAQGPGRKRRQSSDSCSEEPDSTTPPAKSPRGGPGSGGHGPLRYRSSSSTEQSLMMGLRVEDGAQQCLDCGLCFASPGSLSRHRFISHKKRRGVGKASALGLGDGEEEAPPSRSDPDGGDSPLPASGGPLTCKVCGKSCDSPLNLKTHFRTHGMAFIRARQGAVGDN | 2 | 2 | 1 | 1 | –
SMC6 (protein, UniProt Q96SB8 1-1091, looked up) Structural maintenance of …: MAKRKEENFSSPKNAKRPRQEELEDFDKDGDEDECKGTTLTAAEVGIIESIHLKNFMCHSMLGPFKFGSNVNFVVGNNGSGKSAVLTALIVGLGGRAVATNRGSSLKGFVKDGQNSADISITLRNRGDDAFKASVYGNSILIQQHISIDGSRSYKLKSATGSVVSTRKEELIAILDHFNIQVDNPVSVLTQEMSKQFLQSKNEGDKYKFFMKATQLEQMKEDYSYIMETKERTKEQIHQGEERLTELKRQCVEKEERFQSIAGLSTMKTNLESLKHEMAWAVVNEIEKQLNAIRDNIKIGEDRAARLDRKMEEQQVRLNEAEQKYKDIQDKLEKISEETNARAPECMALKADVVAKKRAYNEAEVLYNRSLNEYKALKKDDEQLCKRIEELKKSTDQSLEPERLERQKKISWLKERVKAFQNQENSVNQEIEQFQQAIEKDKEEHGKIKREELDVKHALSYNQRQLKELKDSKTDRLKRFGPNVPALLEAIDDAYRQGHFTYKPVGPLGACIHLRDPELALAIESCLKGLLQAYCCHNHADERVLQALMKRFYLPGTSRPPIIVSEFRNEIYDVRHRAAYHPDFPTVLTALEIDNAVVANSLIDMRGIETVLLIKNNSVARAVMQSQKPPKNCREAFTADGDQVFAGRYYSSENTRPKFLSRDVDSEISDLENEVENKTAQILNLQQHLSALEKDIKHNEELLKRCQLHYKELKMKIRKNISEIRELENIEEHQSVDIATLEDEAQENKSKMKMVEEHMEQQKENMEHLKSLKIEAENKYDAIKFKINQLSELADPLKDELNLADSEVDNQKRGKRHYEEKQKEHLDTLNKKKRELDMKEKELEEKMSQARQICPERIEVEKSASILDKEINRLRQKIQAEHASHGDREEIMRQYQEARETYLDLDSKVRTLKKFIKLLGEIMEHRFKTYQQFRRCLTLRCKLYFDNLLSQRAYCGKMNFDHKNETLSISVQPGEGNKAAFNDMRALSGGERSFSTVCFILSLWSIAESPFRCLDEFDVYMDMVNRRIAMDLILKMADSQRFRQFILLTPQSMSSLPSSKLIRILRMSDPERGQTTLPFRPVTQEEDDDQR | 2 | 2 | – | – | –
BANF1 (protein, UniProt O75531 1-89, looked up) Barrier-to-autointegration …: MTTSQKHRDFVAEPMGEKPVGSLAGIGEVLGKKLEERGFDKAYVVLGQFLVLKKDEDLFREWLKDTCGANAKQSRDCFGCLREWCDAFL | 2 | 2 | – | – | Total (peptides) [6]: 1; Unique (peptides) [6]: 1
PPIG (protein, UniProt Q13427 1-754, looked up) Peptidyl-prolyl cis-trans …: MGIKVQRPRCFFDIAINNQPAGRVVFELFSDVCPKTCENFRCLCTGEKGTGKSTQKPLHYKSCLFHRVVKDFMVQGGDFSEGNGRGGESIYGGFFEDESFAVKHNKEFLLSMANRGKDTNGSQFFITTKPTPHLDGHHVVFGQVISGQEVVREIENQKTDAASKPFAEVRILSCGELIPKSKVKKEEKKRHKSSSSSSSSSSDSDSSSDSQSSSDSSDSESATEEKSKKRKKKHRKNSRKHKKEKKKRKKSKKSASSESEAENLEAQPQSTVRPEEIPPIPENRFLMRKSPPKADEKERKNRERERERECNPPNSQPASYQRRLLVTRSGRKIKGRGPRRYRTPSRSRSRDRFRRSETPPHWRQEMQRAQRMRVSSGERWIKGDKSELNEIKENQRSPVRVKERKITDHRNVSESPNRKNEKEKKVKDHKSNSKERDIRRNSEKDDKYKNKVKKRAKSKSRSKSKEKSKSKERDSKHNRNEEKRMRSRSKGRDHENVKEKEKQSDSKGKDQERSRSKEKSKQLESKSNEHDHSKSKEKDRRAQSRSRECDITKGKHSYNSRTRERSRSRDRSRRVRSRTHDRDRSRSKEYHRYREQEYRRRGRSRSRERRTPPGRSRSKDRRRRRRDSRSSEREESQSRNKDKYRNQESKSSHRKENSESEKRMYSKSRDHNSSNNSREKKADRDQSPFSKIKQSSQDNELKSSMLKNKEDEKIRSSVEKENQKSKGQENDHVHEKNKKFDHESSPGTDEDKSG | 2 | 2 | – | – | –
